Results published in patent US11278533B2, “Animal pest control method” (E.I. DU PONT DE NEMOURS AND COMPANY, priority 2007, dated 2022).
Some of these results come from one statement about several compounds together.

How the values were obtained:
Format in all cases: in vivo
[1] = system: cat flea (Ctenocephalides felis); experiment: Test C: cat flea control on subcutaneously dosed mouse, fleas applied 2 h after dosing; conditions: CD-1 mouse, 10 mg/kg subcutaneous; adult fleas applied two hours after administration; mortality 48 hours after flea application
[2] = system: cat flea (Ctenocephalides felis); experiment: Test A: cat flea control on orally dosed mouse, fleas applied 2 h after dosing; conditions: CD-1 mouse, 10 mg/kg oral; adult fleas applied two hours after administration; mortality 48 hours after flea application
[3] = system: cat flea (Ctenocephalides felis); experiment: Test B: cat flea control on orally dosed mouse, fleas applied 24 h after dosing; conditions: CD-1 mouse, 10 mg/kg oral; adult fleas applied twenty four hours after administration; mortality 48 hours after flea application

| Compound | mortality [1] | mortality [2] | mortality [3] |
| --- | --- | --- | --- |
| CSCCNC(=O)c1ccc(C2=NOC(c3cc(Cl)cc(Cl)c3)(C(F)(F)F)C2)cc1C (stereo not drawn) [Compound 2, 4-[5-(3,5-dichlorophenyl)-4,5-dihydro-5-(trifluoromethyl)-3-isoxazolyl]-2-methyl-N-[2-(methylthio)ethyl]benzamide] | at least 20% | at least 50% |  |
| CSCCC(C)NC(=O)c1ccc(C2=NOC(c3cc(Cl)cc(Cl)c3)(C(F)(F)F)C2)cc1C (stereo not drawn) [Compound 4, 4-[5-(3,5-dichlorophenyl)-4,5-dihydro-5-(trifluoromethyl)-3-isoxazolyl]-2-methyl-N-[1-methyl-3-(methylthio)propyl]benzamide] |  | at least 50% |  |
| Cc1cc(C2=NOC(c3cc(Cl)cc(Cl)c3)(C(F)(F)F)C2)ccc1C(=O)NCc1ccccn1 (stereo not drawn) [Compound 1, 4-[5-(3,5-dichlorophenyl)-4,5-dihydro-5-(trifluoromethyl)-3-isoxazolyl]-2-methyl-N-(2-pyridinylmethyl)benzamide] |  | at least 50% | at least 20% |
| Cc1cc(C2=NOC(c3cc(Cl)cc(Cl)c3)(C(F)(F)F)C2)ccc1C(=O)NCC(=O)NCC(F)(F)F (stereo not drawn) [Compound 3, 4-[5-(3,5-dichlorophenyl)-4,5-dihydro-5-(trifluoromethyl)-3-isoxazolyl]-2-methyl-N-[2-oxo-2-[(2,2,2-trifluoroethyl)amino]ethyl]benzamide] |  | at least 50% |  |
